Results are given in words; binding and its absence hold for the method and conditions named. Binding seen in cells or lysates may run through a third protein. Some binding calls cover weakened binding; strength is not graded here. For some assays here: Tags and fused reporters may be left off the sequences shown.
T1: Flag-NLK (Nemo-like kinase) (mouse) (UniProt O54949)
T1 sequence: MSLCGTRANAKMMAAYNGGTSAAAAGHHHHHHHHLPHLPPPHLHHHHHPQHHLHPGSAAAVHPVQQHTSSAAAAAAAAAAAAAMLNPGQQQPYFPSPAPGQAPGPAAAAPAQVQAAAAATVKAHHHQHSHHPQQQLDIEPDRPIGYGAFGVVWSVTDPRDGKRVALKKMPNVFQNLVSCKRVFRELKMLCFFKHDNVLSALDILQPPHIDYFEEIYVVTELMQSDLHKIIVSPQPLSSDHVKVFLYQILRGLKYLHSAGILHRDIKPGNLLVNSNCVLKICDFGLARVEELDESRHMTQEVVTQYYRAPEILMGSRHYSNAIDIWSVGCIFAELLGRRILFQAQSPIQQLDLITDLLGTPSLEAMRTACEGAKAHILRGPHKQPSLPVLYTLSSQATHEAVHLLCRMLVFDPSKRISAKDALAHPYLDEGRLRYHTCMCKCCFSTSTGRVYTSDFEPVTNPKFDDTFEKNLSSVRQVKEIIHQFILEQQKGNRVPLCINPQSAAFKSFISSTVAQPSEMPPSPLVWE

The chains behind the UniProt entries cited, without tags or fusion partners.
UniProt P42224: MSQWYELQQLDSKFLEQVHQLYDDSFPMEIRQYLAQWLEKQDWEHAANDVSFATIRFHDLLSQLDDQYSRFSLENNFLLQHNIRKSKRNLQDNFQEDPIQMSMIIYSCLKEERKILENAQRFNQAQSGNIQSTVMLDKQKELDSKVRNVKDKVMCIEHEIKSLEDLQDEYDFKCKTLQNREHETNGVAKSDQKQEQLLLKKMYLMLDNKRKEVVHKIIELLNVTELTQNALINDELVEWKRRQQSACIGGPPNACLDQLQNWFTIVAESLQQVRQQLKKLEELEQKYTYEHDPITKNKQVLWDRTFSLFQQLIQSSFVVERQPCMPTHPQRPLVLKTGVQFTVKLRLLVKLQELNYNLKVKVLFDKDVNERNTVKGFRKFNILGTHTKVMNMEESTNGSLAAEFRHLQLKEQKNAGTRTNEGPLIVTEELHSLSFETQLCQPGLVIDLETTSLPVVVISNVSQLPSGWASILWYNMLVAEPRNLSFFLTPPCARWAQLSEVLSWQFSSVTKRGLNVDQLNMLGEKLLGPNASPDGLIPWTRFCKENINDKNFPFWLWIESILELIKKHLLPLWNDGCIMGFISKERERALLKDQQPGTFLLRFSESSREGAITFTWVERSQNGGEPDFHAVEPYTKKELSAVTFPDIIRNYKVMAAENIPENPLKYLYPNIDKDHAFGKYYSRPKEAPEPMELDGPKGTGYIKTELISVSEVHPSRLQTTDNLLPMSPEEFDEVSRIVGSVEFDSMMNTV

T2: NLK expressed from a recombinant adenovirus in neonatal rat cardiac myocytes (mouse) (UniProt O54949)
T2 sequence: T1 sequence

B1: Stat1 (endogenous, neonatal rat cardiac myocytes) (protein, UniProt Q9QXK0 1-749)
chain: MSQWFELQQLDSKFLEQVHQLYDDSFPMEIRQYLAQWLEKQDWEHAAYDVSFATIRFHDLLSQLDDQYSRFSLENNFLLQHNIRKSKRNLQDNFQEDPVQMSMIIHNCLKEERKILENAQRFNQAQEGNIQNTVMLDKQKELDSKVRNVKDQVMCIEHEIKTLEDLQDEYDFKCKTSQNRESEANGVAKSDQKQEQLLLHKMFLMLDNKRKEIIHKIRELLNSIELTQNTLINDELVEWKRRQQSACIGGPPNACLDQLQSWFTIVAESLQQVRQQLKKLEELEQKFTYEQDPITKNKQVLSDRTFVLFQQLIQSSFVVERQPCMPTHPQRPLVLKTGVQFTVKLRLLVKLQELNYNLKVKVSFDKDVNEKNTVKGFRKFNILGTHTKVMNMEESTNGSLAAEFRHLQLKEQKNAGNRTNEGPLIVTEELHSLSFETQLCQPGLVIDLETTSLPVVVISNVSQLPSGWASILWYNMLVTEPRNLSFFLNPPCAWWSQLSEVLSWQFSSVTKRGLNADQLSMLGEKLLGPNAGPDGLIPWTRFCKENINDKNFSFWPWIDTILELIKKHLLCLWNDGCIMGFISKERERALLKDQQPGTFLLRFSESSREGAITFTWVERSQNGGEPDFHAVEPYTKKELSAVTFPDIIRNYKVMAAENIPENPLKYLYPNIDKDHAFGKYYSRPKEAPEPMELDDPKRTGYIKTELISVSEVHPSRLQSTENLLPMSPEEFDEMSKIVGSEFDSMMSAV

Assays:
[1] = molecular target: T1, Flag-NLK (Nemo-like kinase) (mouse); test: co-IP; HEK293 cells transfected with Flag-NLK for 48 hours, lysed, anti-Flag M2 magnetic beads; endogenous proteins detected by Western blotting
[2] = molecular target: T2, NLK expressed from a recombinant adenovirus in neonatal rat cardiac myocytes (mouse); test: co-IP; neonatal rat cardiac myocytes infected with NLK adenovirus for 24 hours; lysate with NLK antibody or normal rabbit IgG for 4 hours, protein A magnetic beads for 2 hours; Western blotting for Stat1

| Molecule | binding [1] | binding [2] |
| --- | --- | --- |
| Stat1 (endogenous, HEK293 cells) (from UniProt P42224 1-750) | binds |  |
| B1 |  | binds |
